The values below come from patent US20020115167A1.

The chains behind the UniProt entries cited, without tags or fusion partners. Residues count along the entry.
UniProt P51140, residues 167-394: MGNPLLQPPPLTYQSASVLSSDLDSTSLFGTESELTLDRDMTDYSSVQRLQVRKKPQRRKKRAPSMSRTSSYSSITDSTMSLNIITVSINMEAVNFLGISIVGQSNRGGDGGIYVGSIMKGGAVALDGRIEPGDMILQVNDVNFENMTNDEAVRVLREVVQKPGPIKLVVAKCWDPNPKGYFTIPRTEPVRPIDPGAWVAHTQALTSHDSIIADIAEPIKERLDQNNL

No constants are given. Whether binding was seen depends on the method and setting. Binding seen in cells or lysates may run through a third protein. Some binding calls cover weakened binding; strength is not graded here.

Assay [1] addresses Drosophila PAR-1 (dPAR-1), the Dishevelled-associated kinase (Drosophila). Nature of the assay: GST-fusion pull-down from Drosophila embryo lysates, in vitro kinase assay.
For assay [2] the target is unchanged. Nature of the assay: GST-fusion pull-down from staged Drosophila embryo lysates, in vitro kinase assay.

Take “GST-fusion protein containing the middle (DM) domain of Dsh (from UniProt P51140 167-394)”: the binding entry in assay [1] and in assay [2] was “binds” in each case.
